Source: the supplement of paper PMC5949888
± gives the standard deviation of the averaged measurements. Most values lie at the floor of the assay. Slopes are relative: functional sequences can read slightly below zero.

What follows are substances tested on Saccharomyces cerevisiae PS128 hsf1 delta, HSF1(1-493) fusion (assay: growth estimate (transactivation domain function in HSF1 fusion, heat-shock survival) (a.u. (slope of normalised read count over time)); higher = stronger growth at 37°C, i.e. more transactivation activity). Conditions: library: random library.

Substance | growth estimate
AVRKKTSKTRYSVVSFLERE | < -0.25
CSVVGVWNGSLTTNQIRVIW | < -0.25
CFVLRIRRLSVQGATGSKRN | < -0.25
TCCGKLTD | -0.246
RTL | < -0.25
LVNNSMVTSGGLPSMQRSV | < -0.25
SRGYDQRQRNLGSYLRAGPS | < -0.25
GKTGISGAPHASCDSNASHL | < -0.25
AKCGTVNLMTPERVMVVFGS | < -0.25
YGTG | < -0.25
LGEEPETSVRTLNRGT | < -0.25
GRSPGGHLEACSTDAMWSTA | < -0.25
LTS | -0.247 ± 0.0037
ILNASRWRLILTVASADFAR | < -0.25
CCSRRVVERTCRSDPKWSKR | < -0.25
SCVIPYSSKEITRREQNART | < -0.25
SGGYDAAYPLYPAACLFRLP | < -0.25
SQPCGGNRVLAVTTN | < -0.25
STPLSREQTRVWRFADRNLL | < -0.25
WVVGC | < -0.25
RLIQ | < -0.25
AYWGLAT | < -0.25
ETAI | < -0.25
GWSSVKYGATAPCRECVLYP | < -0.25
AIQEEVSQDS | < -0.25

Substance | growth estimate
YTLVLRHRRSLRTVPVLPPI | < -0.25
DVGCDASPNRAHVRLA | < -0.25
QHRSPWPGVG | < -0.25
RTTLFF | < -0.25
ELRSVINPSYY | < -0.25
AVILS | < -0.25
SARVVCRKSCF | < -0.25
QGCTNRRCADTFEVKAG | < -0.25
THYHLPPLVVKYLGTSCQKI | < -0.25
CCV | < -0.25
QWYSY | < -0.253
CSCNYMSHELARPGVRTPST | < -0.25
LLSVSAGSAHSEGKLI | < -0.25
RWIILAPEITEQQRVNTGTH | < -0.25
ITS | < -0.25
PEQGWTKFGVQNRPNFSQKV | < -0.25
GCRAHNYTSECKGMAN | < -0.25
YNLMIGPGRVYAPRNPV | < -0.25
PVMCGVSLTVHSRACLRSTT | < -0.25
ILLTGAFCTFTWGQVLCHGG | < -0.25
TGPPYGPVLGLLILPAPLKV | < -0.25
AQNGGLAELGANTVHRTPQA | < -0.25
IDGSLLSDA | < -0.25
MDAPVSFETGVMKIVRTAVR | < -0.25
VALKV | < -0.25

Quoted at random: 4 records from the list
Substance | growth estimate
QHRSPWPGVG | < -0.25
AVRKKTSKTRYSVVSFLERE | < -0.25
IDGSLLSDA | < -0.25
ILLTGAFCTFTWGQVLCHGG | < -0.25

Following part:

Substance | growth estimate
LCFALSKRRTQFLAPEFNSL | < -0.25
RRGMIATAVVVCDIVNHVVA | < -0.25
DLVWGMGRVSDLLSR | < -0.25
ASPSGMGTE | < -0.25
NSVLSNLYRAGTGSVVAQRR | < -0.25
HGLYA | < -0.25
KME | < -0.25
LCICKPVREVHESLCHGNSY | < -0.25
CPWLFCGTFNSGLM | < -0.25
TWALC | < -0.25
RHLVCFGGIKNANG | < -0.25
DPPSTRPQ | < -0.25
LEGRRRIQVFTEGSCTWGDK | < -0.25
PGDQPNTNGGKQ | < -0.25
RVFCSRKAGGIIAARQVAPH | < -0.25
NHCFTKKWGI | < -0.25
APRGAGVRHQETGSPDMESS | < -0.25
RLYM | < -0.25
VNEM | < -0.25
TVYLPSLTRMLGGIDPLYIF | < -0.25
WGTLARKSEDVILCVPFVTH | < -0.25
IYVQAGNLAHKTSF | -0.246
KSSFEFISLGSSLFDIICPL | < -0.25
LVRATRPDPFPTPPRRLRTN | < -0.25
FLSTCSPVAMLFRSRC | < -0.25

Some of the entries above, reformatted.
ASPSGMGTE
  growth estimate: < -0.25
NSVLSNLYRAGTGSVVAQRR
  growth estimate: < -0.25
HGLYA
  growth estimate: < -0.25
KME
  growth estimate: < -0.25

Additional entries.

Substance | growth estimate
AERAIMGHSTTYTMSGAPTR | < -0.25
AQTPGKCPKSRQRLLN | < -0.25
RAGGIIKLSSIGGHE | < -0.25
SRSSQQPDTSSAFSWVVGVM | < -0.25
SGVQASVRPHTPHNYPRVNS | < -0.25
PAGCCLGEMPRMILNQRLIP | < -0.25
YRVICSYNASAVSRICSRHK | < -0.25
NIAGALLAT | < -0.25
GKIRPETD | < -0.25
YATWPPSCSARHAHSRKNVD | < -0.25
VVCSARIEEGLLTTPICLVG | < -0.25
HTKELPLQIANTNLSRGQRC | < -0.25
MVRNGYGPIPREILIMSRVQ | < -0.25
AGGILL | < -0.25
LSRCGECYLYRGLLL | < -0.25
EAHVLTNIPFG | < -0.25
FRSIRRGRDLTWRQAT | < -0.25
RRCV | < -0.25
CWPPASGVIDGFFSKVIFVG | < -0.25
QASWISPYVTVS | -0.248
YVGRFVQPRHSMPSNVLNLH | < -0.25
DLKGRKALFKHGANPVSPRK | < -0.25
SQLRTCRSRSSLFVGTWQGM | < -0.25
MPSKLAPIRA | < -0.25
IQVFHVSVRGTTGMESIVLL | < -0.25

Substance | growth estimate
KGVGIIRGMGKVAV | < -0.25
RVNYVRELLVV | < -0.25
QLALSACGQTPQTAA | < -0.25
AVLCGFPSQRVKQSLSRK | < -0.25
ERACLLISERSRHVPEPHTQ | < -0.25
ASFALSSLLRISKGSNVRGE | < -0.25
IVSSVS | < -0.25
SFP | < -0.25
RHHDIAFALGCKKLSQLGQH | < -0.25
LIVDLGGVPGYLTRSIRGEY | < -0.25
HRTFVSSSGSYY | -0.174
AESQESREHTEDVRIGLQPF | < -0.25
TLCLSVTVSPL | < -0.25
VDYIYSVPMWSGTFQ | < -0.25
GLPTIGFYG | < -0.25
VSGLITYMRFV | < -0.25
QGRGITRFRDATGSYVLSGL | < -0.25
CGRRLGGVLAEAKSIGGIVL | -0.245
KYERLKLGATSFETLGIT | < -0.25
DMFTLVFISSIY | < -0.25
GGTHIATKMC | < -0.25
RVCMLATRGTWWLCSQGQGT | < -0.25
LPLTTASNCSH | < -0.25
TIV | -0.248
SKLHESRSSEVARHES | -0.231

Substance | growth estimate
CDCLLAGDSTSD | < -0.25
PYRF | < -0.25
VGIPTSHGALRSISASVHKY | < -0.25
WCCYSL | < -0.25
FWKRPAMESLCSERCGTCAT | < -0.25
RDPASAGVSKYD | < -0.25
YRRVPAHNGAA | < -0.25
TILVNQSVIR | < -0.25
PDSRFVGPCGV | < -0.25
IQCETLVLREVRGAE | < -0.25
DGAKRTELIPSPLEPIGCHP | < -0.25
RSPGRE | < -0.25
RTFAALFPRGSVLVPCKYLA | < -0.25
EITRVVYSADGHMGTTWAIG | < -0.25
LTGIYTHTPEC | < -0.25
NTGEPSMEVKSLVGPTVNGC | < -0.25
NASYIIRRPQHRQLVQAGAP | < -0.25
VVYAP | < -0.25
LCVRKRGI | < -0.25
NLFCHLRSESDP | < -0.25
CDNSEYNV | < -0.25
